Experimental data: article PMC4351204, “Amyloid Precursor Protein Mediated Changes in Intestinal Epithelial Phenotype In Vitro” (PLoS ONE, 2015)
No constants are given. Whether binding was seen depends on the method and setting. In cells and extracts the contact can be indirect.

By UniProt entry, the sequences of proteins in these tests, tags left out. Residues count along the entry.
UniProt P05067, residues 18-770: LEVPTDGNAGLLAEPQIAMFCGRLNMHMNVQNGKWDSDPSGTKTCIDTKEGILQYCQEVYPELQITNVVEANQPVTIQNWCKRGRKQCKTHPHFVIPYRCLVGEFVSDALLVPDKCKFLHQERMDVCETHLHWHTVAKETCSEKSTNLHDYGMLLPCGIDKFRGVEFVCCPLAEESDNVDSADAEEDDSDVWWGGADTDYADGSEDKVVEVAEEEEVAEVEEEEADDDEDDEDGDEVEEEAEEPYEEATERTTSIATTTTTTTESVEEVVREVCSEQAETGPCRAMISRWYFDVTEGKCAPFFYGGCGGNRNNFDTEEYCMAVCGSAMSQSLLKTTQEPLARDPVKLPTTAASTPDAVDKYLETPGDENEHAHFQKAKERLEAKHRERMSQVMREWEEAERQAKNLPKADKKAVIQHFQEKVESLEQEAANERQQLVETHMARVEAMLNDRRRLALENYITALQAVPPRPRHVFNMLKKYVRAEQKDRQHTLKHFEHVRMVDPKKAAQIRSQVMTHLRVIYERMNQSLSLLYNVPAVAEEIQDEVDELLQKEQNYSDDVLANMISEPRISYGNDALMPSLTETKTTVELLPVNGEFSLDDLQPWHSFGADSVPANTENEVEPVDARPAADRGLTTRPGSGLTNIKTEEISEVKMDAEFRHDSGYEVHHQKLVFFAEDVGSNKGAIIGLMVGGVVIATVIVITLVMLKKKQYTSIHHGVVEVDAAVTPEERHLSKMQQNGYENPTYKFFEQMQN
UniProt Q6P1M0: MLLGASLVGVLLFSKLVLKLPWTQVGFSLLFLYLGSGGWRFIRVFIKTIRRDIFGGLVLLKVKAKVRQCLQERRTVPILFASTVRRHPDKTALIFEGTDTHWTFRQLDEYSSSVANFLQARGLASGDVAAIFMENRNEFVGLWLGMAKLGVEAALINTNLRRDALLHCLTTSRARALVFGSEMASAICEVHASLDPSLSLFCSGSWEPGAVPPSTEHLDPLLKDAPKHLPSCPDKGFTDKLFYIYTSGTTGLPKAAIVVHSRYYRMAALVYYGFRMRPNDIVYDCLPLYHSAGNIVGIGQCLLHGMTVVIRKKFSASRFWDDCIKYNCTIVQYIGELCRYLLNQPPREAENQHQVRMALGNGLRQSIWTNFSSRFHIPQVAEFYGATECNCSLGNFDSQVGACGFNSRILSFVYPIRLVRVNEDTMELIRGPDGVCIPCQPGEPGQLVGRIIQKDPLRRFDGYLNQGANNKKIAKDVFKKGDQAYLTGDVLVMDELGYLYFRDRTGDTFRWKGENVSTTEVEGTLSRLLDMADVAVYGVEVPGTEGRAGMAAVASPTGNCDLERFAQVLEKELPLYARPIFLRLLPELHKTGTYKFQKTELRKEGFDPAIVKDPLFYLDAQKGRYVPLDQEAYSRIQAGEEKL

Target: amyloid precursor protein (human (endogenous in Caco-2)) (UniProt P05067)
Experiment: co-IP; Caco-2 cells, media alone or stimulated 10 min with 1 ug/mL IgG1, 22C11 (APP agonist antibody) or SMΦ (CD36 agonist antibody); lysed in 1% Triton X-100 buffer (20mM Tris pH 7.4, 150mM NaCl); anti-APP antibody overnight at 4°C, protein A/G agarose 2 h at 4°C, washed three times; western blot with anti-APP (Y188), CD36 or FATP4 antibodies

“fatty acid transport protein, FATP4 (from UniProt Q6P1M0 1-643)” was tested, and the binding was “no binding”.
